Data: publication PMC5706701, “Development of a homogenous high-throughput assay for inositol hexakisphosphate kinase 1 activity” (PLoS ONE, 2017)

The chains behind the UniProt entries cited, without tags or fusion partners. Where a name states a change or a piece, a line headed by the entry shows the natural chain unless it says otherwise.
UniProt Q92551: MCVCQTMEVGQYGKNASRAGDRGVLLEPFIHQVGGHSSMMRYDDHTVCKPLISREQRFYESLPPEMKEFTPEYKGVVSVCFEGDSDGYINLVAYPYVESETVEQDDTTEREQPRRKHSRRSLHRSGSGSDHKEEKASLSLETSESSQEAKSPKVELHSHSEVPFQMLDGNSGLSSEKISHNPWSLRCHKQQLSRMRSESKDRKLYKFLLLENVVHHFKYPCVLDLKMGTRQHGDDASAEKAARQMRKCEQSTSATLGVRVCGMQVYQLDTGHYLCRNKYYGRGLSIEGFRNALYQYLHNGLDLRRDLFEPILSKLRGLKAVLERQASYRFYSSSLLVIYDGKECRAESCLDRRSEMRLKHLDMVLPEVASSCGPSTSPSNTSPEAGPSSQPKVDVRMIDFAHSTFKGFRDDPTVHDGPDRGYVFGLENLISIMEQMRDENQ

Molecular target: T1, Human IP6K1 (Homo sapiens, UniProt Q92551)
T1 construct: GST (N, cleaved yes); made in house; host or cells: C43 E. coli, pGEX-6P-2
Experiment: IP6K1 high-throughput screen of the Sigma LOPAC (ADP-Glo Max, single point);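 also: final compound concentration 10µM in 5% DMSO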
Assay type: biochemical

With `CC[N+](CC)(CC)CC(=O)Nc1c(C)cccc1C.[Br-]` the “Raw Signal” value was 52677 and the Z-score was -0.2884.
In the case of `CCCC[N+]1(C)[C@@H]2C[C@@H](OC(=O)[C@H](CO)c3ccccc3)C[C@H]1[C@@H]1O[C@@H]12.[Br-]` (single isomer, unassigned; (-)) [(-)-Scopolamine,n-Butyl-, bromide], the “Raw Signal” value was 53834 and the Z-score was -0.4254.
